Laboratory results as given in patent US20090209497A1, “METHOD OF TREATING LYMPHANGIOLEIOMYOMATOSIS (LAM)” (priority 2005, published 2009).
“Also recorded” adds a separate entry of the source. At least one compound was matched to its structure with a doubt left.

What was measured:
[1] = tested on: urinary MMPs (MMP-2, MMP-9, MMP-9/NGAL complex); test: Urinary MMP profiling during course of doxycycline treatment; assay type: in vivo, human; conditions: patient's urine, monthly profiling during course of doxycycline treatment (FIG. 1A)
[2] = Doxycycline therapy of a patient with LAM: clinical improvement (FEV1, O2 saturation, 6-min walk test); assay type: in vivo, human
From the text: FIGS. 1A-1B show successful treatment of LAM with doxycycline: monitoring therapeutic efficacy and measuring clinical improvement. […] Data points represent single measurements taken prior to or during doxycycline therapy. A person was diagnosed with LAM in 1975 after a partial nephrectomy for angiomyolipoma. Although stable for many years, their condition had deteriorated with an FEV1 as low as 0.48 liters (21 percent of predicted), and they were placed on the lung transplant list. […] Based on these elevated MMP levels, doxycycline was initiated at an initial dose of 20 mg/day. Dose escalation (up to 100 mg/day) was determined by monthly urinary MMP profiling (FIG. 1A) and how well the drug was tolerated. […] Telegraphic speech, which was present, resolved.

C[C@H]1c2cccc(O)c2C(=O)C2=C(O)[C@]3(O)C(=O)C(C(N)=O)=C(O)[C@@H](N(C)C)[C@@H]3[C@@H](O)[C@@H]21 [doxycycline]
urinary MMP activity / levels [1]: significant reduction in urinary MMP activity; also recorded: decreasing levels of urinary MMPs | time to desaturation to 90% O2 after removal of supplemental O2 ([2]; LAM patient during course of doxycycline therapy (FIG. 1B left panel)): increased time to desaturation | O2 saturation ([2]; LAM patient during course of doxycycline therapy (FIG. 1B)): prolonged O2 saturation; also recorded: enhanced O2 saturation | telegraphic speech ([2]; LAM patient on doxycycline): resolved | quality of life ([2]; LAM patient on doxycycline, removed from the lung transplant list): clear improvement in quality of life | O2 saturation after exercise (6-min walk test) ([2]; LAM patient while on doxycycline therapy (FIG. 1B right panel)): sustained O2 saturation after exercise
